Experimental data: US20250079000A1, “METHODS AND MARKERS FOR DIAGNOSIS OF PARKINSON'S DISEASE” (Berg LLC, priority 2021, published 2025)

Test: Metabolic stability assessment of biomarkers in healthy control subjects
Parameters: species or system human
Conditions: for Change of metabolite over five consecutive days: Monday through Friday, 7 AM, fasting; for Change of metabolite over the course of a day: five time points (7 AM to 7 PM), without fasting

SMILES	Change of metabolite over five consecutive days (listed as methylsuccinate)	Change of metabolite over the course of a day (listed as methylsuccinate)	Change of metabolite over five consecutive days	Change of metabolite over five consecutive days (listed as N-acetylputerscine)	Change of metabolite over the course of a day	Change of metabolite over the course of a day (listed as N-acetylputerscine)
CC(CC(=O)O)C(=O)O (stereo not drawn) [MSA, Methylsuccinic acid]	did not change; also recorded: do not change	did not change; also recorded: do not change				
CC(=O)NCCCCN [NAP, N-acetyl putrescine]			do not change	did not change	do not change	did not change

Entries after “also recorded” stand apart in the source; their conditions may differ.
